# PMC12040169 (PLOS Biology, 2025)
# The list shows a part of the results.
# Tested on: T1, CTL2-GFP (C. trachomatis L2/434/Bu, GFP-expressing)
# T1 construct: L2/434/Bu, GFP-expressing
# Parameters: species or system HeLa; Intracellular C. trachomatis growth in HeLa cells, bulk GFP fluorescence relative to DMSO
# Settings: bulk GFP, single well; 28.5 h, 10 µM; inhibitor
row,SMILES,% of control remaining
1,O=C(Nc1ccccc1)c1onc2c1CCCC2 [CBK058703],114.817%
2,O=[N+]([O-])c1cc(C(F)(F)F)ccc1NCCNC(=S)Nc1ccc(Cl)cc1 [CBK263578],71.2625%
3,O=C(CN1C(=O)c2ccccc2C1=O)NCC1COc2ccccc2O1 (centres unmarked) [CBK222526],182.263%
4,O=C(NCC1(c2ccccc2Cl)CC1)c1ccc(=O)n(CC(=O)N2CCCCC2)c1 [CBK286077],104.255%
5,Cc1c(Cl)cccc1S(=O)(=O)N1CCCN(c2nc3ccc(Cl)cc3s2)CC1 [CBK014131],114.815%
6,O=c1c(N2CCCNCC2)nccn1CCOc1ccc(Br)cc1 [CBK028613T],117.586%
7,O=C(c1ccncc1)n1nc(NCc2ccccc2)nc1NCc1ccccc1 [CBK269069],125.149%
8,CCOc1ccc2cc(C3CC(c4ccc(C)cc4)=NN3C(=O)CCC(=O)O)c(Cl)nc2c1 (centres unmarked) [CBK297508],121.869%
9,OCC(O)CN1CCc2ccccc21 (centres unmarked) [CBK260896],100%
10,Cc1cc(Br)cc(C)c1NC(=O)CSc1nnc(COc2ccccc2Cl)o1 [CBK264968],116.17%
11,CC(C)(C)c1csc(Nc2nc3cc4c(cc3s2)OCO4)n1 [CBK287491],139.744%
12,COc1ccc(Cn2c(C)nc3ccccc32)cc1 [CBK201156],88.9643%
13,NC(=O)CN1CC2(CCN(CC3COc4ccccc4O3)CC2)c2ccccc21 (centres unmarked) [CBK143960],161.651%
14,CC(C)c1cccc(-n2cc(O)c(C(=O)NCCC(=O)N(C)C)n2)c1 [CBK305234],138.551%
15,N#Cc1c(O)nsc1Nc1ccc(Cl)cc1 [CBK009446],134.467%
16,Cn1cc(CN2CCCN(C(=O)CCCc3ccccn3)CC2)cn1 [CBK305347],111.882%
17,O=S(=O)(Cc1ccccc1)Nc1nnc(C(F)(F)F)s1 [CBK045539],128.701%
18,CCOCC1CCCN1C(=O)Nc1ccc2sc(C(=O)N(C)C)cc2c1 (centres unmarked) [CBK306601],130.702%
19,c1ccc(SCCCN2CCNCC2)cc1 [CBK266067G],132.082%
20,CC(C)[C@H](CO)Nc1nccnc1-c1ccco1 [CBK037390],130.036%
21,Cc1cc(C(=O)N2CCN(C)CC2)ccc1-c1cnc(N)c(-c2ccc(O)cc2)n1 [CBK126749],103.624%
22,O=C(NCCc1ccccc1Cl)C1(Cc2ccc(-c3cccnc3)cc2)CCOCC1 [CBK285590],74.8639%
23,Cc1nnc(CCn2cnc3cccnc3c2=O)s1 [CBK307125],107.384%
24,CN(CC(=O)O/N=C(\N)c1ccc(I)cc1)S(=O)(=O)c1cc(Cl)ccc1Cl [CBK268389],110.575%
25,CCc1nc(CNc2ccc(NC(C)=O)cc2Cl)cs1 [CBK305103],109.848%
26,Nc1ncc(-c2cccc3ncccc23)nc1NC1CCOCC1 [CBK063852],135.05%
27,O=C(CCSc1nc(-c2ccco2)cc(C(F)(F)F)n1)N1CCN(c2ccccn2)CC1 [CBK267626],99.4746%

# Taken from above.
# Value of `CC(C)(C)c1csc(Nc2nc3cc4c(cc3s2)OCO4)n1` [CBK287491] under % of control remaining: 139.744%
# Value of `c1ccc(SCCCN2CCNCC2)cc1` [CBK266067G] under % of control remaining: 132.082%
# Value of `O=C(CCSc1nc(-c2ccco2)cc(C(F)(F)F)n1)N1CCN(c2ccccn2)CC1` [CBK267626] under % of control remaining: 99.4746%

# Additional entries.

row,SMILES,% of control remaining
1,COc1ccc(-n2c(SCC(=O)c3ccccc3)nc(O)c(Cc3ccccc3)c2=O)cc1 [CBK263398],111.351%
2,O=C(O)CC(CN1C(=O)c2ccccc2C1=O)C(=O)c1ccccc1 (centres unmarked) [CBK287221],109.778%
3,N#CCCCN1CCC(Oc2nccnc2OCc2ccc(F)cc2)CC1 [CBK153643],94.8888%
4,COc1ccc(OC(=O)c2ccc3nonc3c2)cc1 [CBK083571],106.27%
5,O=C(Nc1ccc2cc[nH]c2c1)c1cccnc1 [CBK160053],131.386%
6,O=C(C1=C(O)C(=O)N(CCCn2ccnc2)C1c1ccncc1)c1cccs1 (centres unmarked) [CBK111017],114.604%
7,CCNC(=O)N[C@H]1CO[C@H]2[C@@H]1OC[C@@H]2Nc1nccc(-c2cccc(F)c2)n1 [CBK289536],113.64%
8,CC(C)C(C(=O)O)N(C)C(=O)OCc1ccccc1 (centres unmarked) [CBK286593],106.037%
9,CC(=O)NCc1cccc(-c2cc(C(=O)Nc3ccc4c(c3)OCCO4)cnc2O)c1 [CBK149871T],122.703%
10,O=C(c1ccc(=O)[nH]n1)N1C2CCC1CC(c1ccc(F)cc1)C2 (centres unmarked) [CBK283737],119.041%
11,CCOc1cc(S(=O)(=O)NCCCN2CCOCC2)c(C)cc1C [CBK268764],125.502%
12,CSc1cc(C)c2c(c1)COC1(CCN(CC3CC3)CC1)O2 [CBK061383],166.119%
13,COc1ccc(N2CCN(c3cncc(-c4ccc(C(N)=O)cc4)n3)CC2)cc1OC [CBK065820],193.07%
14,COc1cccc(NC(=O)CN2CCC(NC(=O)c3cccs3)CC2)c1 [CBK305800],109.698%
15,Fc1ccc(-c2cccc(N3CCN(c4ccccn4)CC3)n2)cc1Cl [CBK036877],87.5501%
16,Cc1cccn2c(CN3CCC(O)CC3)c(C(=O)N3CCCCC3)nc12 [CBK307639],140.968%
17,Cc1nnc(CS(=O)(=O)Cc2csc(C(C)(C)C)n2)n1C1CC1 [CBK305489],122.349%
18,O=CN1C2CCC1c1cnc3cc(-c4cccc(F)c4)nn3c1C2 (centres unmarked) [CBK282269],126.598%
19,Cc1ccc(C(=O)O)cc1NC(=O)C1CCCCC1C(=O)O (centres unmarked) [CBK263679],112.11%
20,Cc1ccn(CCNC(=O)CCN2Cc3ccccc3C2=O)n1 [CBK282655],104.453%
21,CCOCc1nc2c(c(NCc3cc(C)on3)n1)CCN(C(C)=O)CC2 [CBK307512],99.1273%
22,CCNC(=O)C1(Cc2ccccc2-c2ccccc2C)CCN(C(=O)c2ccccc2)CC1 [CBK285716],96.8435%
23,N#CCCN1CCC2(CC1)NCCc1c2[nH]c2ccccc12 [CBK039788],151.97%
24,CCOC(=O)C(CNC(=O)c1cnc(C)c(Br)c1Cl)Cc1ccccc1 (centres unmarked) [CBK305247],101.554%
25,O=C(NC(=S)N1C[C@@H]2C[C@@H](C1)c1cccc(=O)n1C2)c1ccco1 [CBK288492],92.4155%
26,CC(C)(Oc1ccc(Cl)cc1)C(=O)O/N=C(\N)c1ccc(I)cc1 [CBK268760],161.534%
27,O=C(Nc1ccc(OC(F)F)cc1)Nc1ncc(Br)c2cccnc12 [CBK107635],201.65%

row,SMILES,% of control remaining
1,Cc1noc(C)c1C(=O)NC1Cc2ccccc2C1 [CBK200350],125.894%
2,Cc1nc2ccc(C(=O)OCc3ccc(S(=O)(=O)Cc4ccccc4)cc3)cc2nc1C [CBK269661],126.912%
3,COC(=O)c1ccc(-c2ccsc2)nc1 [CBK149229],123.779%
4,O=C(O)C1CCN(c2cncc(-c3ccc(F)cc3F)n2)CC1 [CBK065899],151.112%
5,COc1ccc(CN2CCC(Cc3ccccc3-c3ccc(C)cc3C)(C(=O)O)CC2)cc1 [CBK286421],127.226%
6,COc1ccc(C2(NCc3cn(CC(N)=O)c4ccccc34)CC2)cc1 [CBK282833],90.2488%
7,COc1cccc(N2N=C3NNC(N)=C3N2)c1 [CBK093665],106.353%
8,COc1ccc(C(=O)N2CC[C@H]3NC(=O)N(Cc4ccccc4)C(=O)[C@H]32)cc1 [CBK289293],129.214%
9,Cc1ccc(S(=O)(=O)Nc2ccc3c(ccn3CCC3CCN(C(=O)OC(C)(C)C)CC3)c2)cc1Cl [CBK172990],105.812%
10,N#CCCN(C(=O)NCc1c(Cl)cccc1Cl)C1CCCCC1 [CBK156371],95.3504%
11,CC1(C)C(CC(=O)NC2CCCCC2)CC1C(=O)NC1CCCCC1 (centres unmarked) [CBK009260],141.787%
12,CN(C)CCNC(=O)Cn1c(-c2cccs2)cc2cccnc21 [CBK282555],115.349%
13,O=S(=O)(Cc1noc([C@@H]2C[C@@H](O)CN2Cc2ccc(F)cc2)n1)c1ccc(F)cc1 [CBK288831],100.86%
14,CN1CCN(CC2(Cn3ccnc3-c3ccc(C(=O)O)cc3)CC2)CC1 [CBK307641],135.302%
15,O=C(Nc1ccc(S(=O)(=O)Nc2nccc(/C=C/c3ccc(Cl)cc3)n2)cc1)c1ccc(Br)cc1 [CBK263500],127.294%
16,CC(=O)Nc1ccc(C(=O)N2CCCC2c2cccc(Cc3ccc(Cl)cc3)n2)cc1 (centres unmarked) [CBK286144],106.256%
17,CCOC(=O)C1=C(C)NC(=O)NC1c1cccs1 (centres unmarked) [CBK086430],124.964%
18,c1ccc(CNC2CCc3[nH]c4ccccc4c3C2)cc1 (centres unmarked) [CBK091587T],138.964%
19,Cc1nc(N)nc(NCCC2CCCN(C)C2)c1Cl (centres unmarked) [CBK307445],122.789%
20,CC(=O)N1C[C@@H]2CCCCN(CC(=O)NC3CC3)[C@@H]2C1 [CBK285508],107.364%
21,CCCc1nn(CC(=O)NC(C)C)c(=O)c2cc3ccsc3n12 [CBK284147],122.02%
22,Cc1cc(=O)oc2cc(SCc3ccc(SC(F)(F)F)cc3)ccc12 [CBK002897],93.6289%
23,CCc1ccc(C(O)CNC2CCN(C3CCCCC3)CC2)cc1 (centres unmarked) [CBK304604],144.482%
24,NS(=O)(=O)c1cnc(Cl)c(Br)c1 [CBK034079],111.272%
25,O=C(NCCCc1ccc(F)cc1)c1cccc(N2CCCC2=O)c1 [CBK282684],109.492%
26,O=C(O)CC(CNC(=O)Cc1c[nH]c2ccccc12)c1ccc(Cl)cc1 (centres unmarked) [CBK286598],115.899%
